The results in this text go back to paper PMC10952301 (Angewandte Chemie (International Ed. in English), 2023).

A short description of this series: general procedure: Fmoc solid-phase peptide synthesis; Tentagel resin, pre-loaded with lysine. As to conditions: whole synthesis, scale 50 µmol; for isolated yield: on 25 µmol (half of crude).

The substance N(π)-α-ADPr-His: TF[H]ADPrGAGLVVPVDK gave an isolated yield of 28% and an isolated mass of 12.9 mg.

The substance N(τ)-α-ADPr-His: TF[H]ADPrGAGLVVPVDK showed an isolated yield of 35% and an isolated mass of 16.2 mg.

Consider N(τ)-β-ADPr-His: TF[H]ADPrGAGLVVPVDK, for which the isolated yield was determined as 28% and the isolated mass was 13.0 mg.
